# Data: article PMC12448934
# Protein sequences, listed by entry. Tags and fused reporters are not part of them. Lines headed by an entry give the natural chain unless they say otherwise; changes in a name come on top.
# UniProt Q61616: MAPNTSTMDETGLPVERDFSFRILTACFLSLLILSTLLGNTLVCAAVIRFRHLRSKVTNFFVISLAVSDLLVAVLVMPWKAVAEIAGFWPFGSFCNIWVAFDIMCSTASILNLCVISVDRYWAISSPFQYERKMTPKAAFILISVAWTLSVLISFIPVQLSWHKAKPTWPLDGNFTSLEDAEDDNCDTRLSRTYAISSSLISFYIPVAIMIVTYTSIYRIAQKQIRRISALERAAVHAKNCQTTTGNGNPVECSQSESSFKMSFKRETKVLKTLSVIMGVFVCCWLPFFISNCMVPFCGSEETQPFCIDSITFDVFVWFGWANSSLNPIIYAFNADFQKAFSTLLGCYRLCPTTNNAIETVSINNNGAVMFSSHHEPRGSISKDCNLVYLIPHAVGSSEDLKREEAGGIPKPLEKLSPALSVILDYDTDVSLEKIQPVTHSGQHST
# UniProt Q99MK8: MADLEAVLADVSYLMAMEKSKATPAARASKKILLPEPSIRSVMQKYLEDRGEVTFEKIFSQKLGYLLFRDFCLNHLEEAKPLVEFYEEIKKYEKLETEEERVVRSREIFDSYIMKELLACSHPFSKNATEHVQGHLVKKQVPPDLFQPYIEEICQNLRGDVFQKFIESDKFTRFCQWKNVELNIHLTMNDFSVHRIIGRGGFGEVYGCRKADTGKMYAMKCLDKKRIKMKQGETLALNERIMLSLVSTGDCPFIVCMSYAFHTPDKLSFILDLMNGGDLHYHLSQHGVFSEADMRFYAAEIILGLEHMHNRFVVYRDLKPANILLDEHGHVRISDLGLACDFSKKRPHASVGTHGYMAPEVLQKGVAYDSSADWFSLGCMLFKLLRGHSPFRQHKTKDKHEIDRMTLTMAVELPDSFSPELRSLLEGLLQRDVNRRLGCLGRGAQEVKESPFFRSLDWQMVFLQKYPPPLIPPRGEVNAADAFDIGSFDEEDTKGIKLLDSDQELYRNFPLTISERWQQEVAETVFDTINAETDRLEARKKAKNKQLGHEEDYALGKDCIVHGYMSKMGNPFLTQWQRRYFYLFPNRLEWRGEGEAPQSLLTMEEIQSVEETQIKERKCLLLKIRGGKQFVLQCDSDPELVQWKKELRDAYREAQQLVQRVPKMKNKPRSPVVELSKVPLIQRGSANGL
# Results are given in words; binding and its absence hold for the method and conditions named. In cells and extracts the contact can be indirect. Some binding calls cover weakened binding; strength is not graded here.
# Molecular target: Dopamine D1 receptor (D1R), mouse (mouse (endogenous in striatum)) (UniProt Q61616)
# Assay: co-IP; striatal tissue of 6-month-old WT and FMRP-P608L mice in RIPA buffer; immunoprecipitated by anti-D1R, western blot for GRK2
sequence,measurement,value
"G protein-coupled receptor kinase 2 (GRK2), mouse (from UniProt Q99MK8 1-689) (enzyme)",binding,binds
